Experimental data: doi:10.1101/2025.08.09.669463
Results are given in words; binding and its absence hold for the method and conditions named. In cells and extracts the contact can be indirect. Where a sequence is shown, tags or fusion partners need not be part of it.

Target: T1, AtATG8A, recombinant, for GST pull-down (Arabidopsis thaliana) (UniProt Q8LEM4)
T1 sequence: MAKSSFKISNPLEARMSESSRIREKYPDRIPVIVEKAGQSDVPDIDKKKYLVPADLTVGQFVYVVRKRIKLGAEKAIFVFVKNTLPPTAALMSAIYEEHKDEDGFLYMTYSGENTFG
Assay: pull-down

- binding: no binding
B1: AtVCS (Arabidopsis EDC4 homolog), recombinant (protein, UniProt Q9LTT8 1-1344)
chain: MASSPGNTNPHNTPPFDLGILFKPSSNPYPPPAASYPPPTGPFLHNQYDQQHYAPPGISAQPSPVTQQQQDVSSSSAATNLHPQRTLSYPTPPLNLQSPRSNHNPGTHILALLNNTNNGAPVANQEPSHQLPVVNHNEIARSFPGGSGPIRVPSCKLPKGRRLIGEHAVYDVDVRLQGEIQPQLEVTPITKYGSDPQLVVGRQIAVNKVYICYGLKGGNIRVLNINTALRSLFRGHSQRVTDMAFFAEDVDMLASVSLDGKVFVWKISEGSEGEDQPQITGKIVLALQILGEEDTKHPRVCWHCHKQEILVVSIGKHVLRIDTTKVGRGEVFSAEAPLQCPLDKLIDGVQIVGKHDGEVTDLSMCQWMTTRLVSSSVDGTIKIWQDRKAQPLVVLRPHDGHPVSSATFVTSPERPDHIILITGGPLNREMKIWVSAGEEGWLLPADAESWRCTQTLDLKSSTEPRAEEAFFNQVIALSEAGLLLLANAKRNALYAVHLDYGSSPVGTRMDYLSEFTVTMPILSFIGTNDPPEEPIVKVYCVQTLAIQQYTLDLCLCLPPPIENMGLEKSDSSVSREANLVEGMSEPSGLKPTDLPSVDSVPKPSIIVNRSESANKLSFPSAEATSQAIVPPNGEPKTSGLPSQTSGAGSAYATLPQLPLSPRLSSKLSGYHTPVEAIEPVIPHHELGGKTPSADYSVDRQMDAVGERNLDVSSVEEISRSKDSNVTPDDDVSGMRSPSAFFKHPTHLVTPSEILMGVSSAEASITTEDRRDRDANIQDVNNDPRDTEVEVKEISEARSTQNGEINDHDETENCTSENREKVFCSQVSNLSTEMARDCYPSTEGTFIPGESKAYGQPIKAGDESGVDSRGGPAKLLKGKKQKAKNSQGPGLSSTSSNVANLADSFNEQSQSLSHPMTDLLPQLLAMQETMNQVMASQKEMQRQLSNAATGPIGKESKRLEVALGRMIEKSSKSNADALWARIQEETVKNEKALRDHAQQIVNATTNFMSKELNAMFEKTIKKELAAIGPALARSVVPVIEKTVSSAITESFQRGIGDKAVNQLDKSVNIKLEATVARQIQAQFQTSGKQALQEGLRSSVESSVIPSFEKACKAMFDQIDSAFQKGIAEHTNAAQQRFDSGHSQLAHTLKESITSASSVAQALSRELAETQRNLLALAAAGANSGGSNSLVTQLSGGPLGALLEKVEAPMDPTTELSRLISERKYEESFTSALQRSDVSIVSWLCSQVDLRGLLAMNPLPLSQGVLLSLLQQLACDISKDTSRKLAWMTDVVAAINPSDQMIAVHARPIFEQVYQILHHHRNAPGSDVSAIRLIMHVINSMLMGCK
